Numbered stars: 1 amine (or outer) side, 2 acyl side, 3 side chain; on linkers, the order of the positions; unused ones are H or OH. Bridge positions count the residues as written; N and C are the ends. Square brackets hold non-standard residues; d marks the D form. Peptide text beside a SMILES is read from it. * marks the point of attachment. Orn(4R-OH,5R-OCH2CH2NMe3+) = C[N+](C)(C)CCO[C@@H](N[*:3])[C@H](O)C[C@H](N[*:1])C(=O)[*:2]; pTerphenylCO(4''-OnC5H11) = CCCCCOc1ccc(-c2ccc(-c3ccc(C(=O)*)cc3)cc2)cc1; hTyr(3S-OH,4S-OH) = N[C@H](C(=O)O)[C@H](O)[C@@H](O)c1ccc(O)cc1; Pro(3S-OH,4S-Me) = C[C@H]1CN[C@H](C(=O)O)[C@H]1O; Hyp = O=C(O)[C@@H]1C[C@@H](O)CN1

The values below come from US20160076098A1, “METHODS OF DIAGNOSING AND TREATING CHRONIC PAIN” (priority 2013, published 2016).

This data set concerns RAW 264.7 cells. The data set is described as follows: Exosomal RNA sequencing (NGS) of naive and LPS-stimulated RAW 264.7 cells. In kind it is cell-based, mouse. As to conditions: for PS/cpntrol ratio: exosomal mRNA level after LPS stimulation of RAW 264.7 cells compared with exosomes from naive cells. The procedure:
RAW 264.7 cells (ATCC) and RAW-Blue cells (Invivogen) were maintained in complete culture media (1×DMEM, 10% heat inactivated FBS). For exosome collection, RAW 264.7 cells (1×10^7) were plated in 150 mm dishes with complete culture media. At 24 hr, media was replaced with exosome-depleted media (1×DMEM, 10% heat-inactivated FBS depleted of exosomes by ultracentrifugation) with or without 1 μg/ml LPS (Sigma)) and incubated overnight. Media was collected in 50 ml tubes at 24 hr for exosome purification. Human THP1 macrophages were used in some experiments.
Exosome purification from cell culture media was performed as described (McDonald et al., 2013, J Visualized Exp 2013(76):e50294). Centrifugation was used to remove cell debris (500×g for 10 min); the supernatant was transferred and centrifuged (16,500×g for 20 min) Cell-free supernatants were filtered (0.22 μm; VWR, Radnor, Pa.) and exosomes were pelleted by ultracentrifugation (120,000×g for 70 min) The exosomal pellet was resuspended in buffer specific to downstream experiments and vortexed 2×15 seconds. For RNA purification, RNase inhibitors were added after the first centrifugation step at 1 U/ml (RNAsin Plus; Promega, Madison, Wis.) and at all subsequent steps at 1 U/μl. For purification from human samples, serum was diluted 1:1 with 1x PBS (−) Mg2+ and Ca2+(Corning 21-031-CV; Corning, N.Y.) and spun at 2000×g for 30 min at 4° C. The sample was transferred to a centrifuge tube and spun at 12,000×g for 45 min at 4° C., then transferred to an ultracentrifuge tube and spun at 110,000×g for 2 hr at 4° C. The pellet was resuspended in 1×PBS minus Mg^2+ and Ca^2+ and spun for an additional hour at 110,000×g before resuspension in RNA lysis buffer.
The SOLiD whole transcriptome analysis kit protocol with the fragmentation step omitted was used to generate a cDNA library for each sample. Total RNA, ranging in size from kilobases down to 10-mers, was purified from exosomes using the mirVana miRNA isolation kit (Life Technologies) following manufacturer's protocol. RNA concentration was measured using Nanodrop 1000 (NanoDrop Technologies, Wilmington, Del.). Total RNA from 3 independent exosome purifications was pooled to obtain 4 μg exosomal RNA per library (due to a limited amount of RNA in individual preparations), analyzed for integrity using the Agilent RNA 6000 Pico Kit (RNA integrity number between 1.6 and 2.1), and gel purified. Sequencing adapter ligation and cDNA reverse transcription were performed with SOLiD Total RNA-seq kit. DNA fragments in the target range of 150 to 500 bp were enriched using Agencourt AMPure XP PCR bead capture purification (Beckman Coulter; Brea, Calif.) before sequencing 50-bp pieces with no paired ends. The SOLiD 5500XL high-throughput sequencing platform (Applied Biosystems, Carlsbad, Calif.) was used for sequencing.
Sequencing reads were aligned to the mouse reference genome version mm9 (July, 2007) and transcripts were assembled based on refGene annotations (dated Dec. 16th, 2012) obtained from the UCSC Genome Browser (Karolchik et al., 2014, Nucleic acids research 42(1):D764-770) and non-coding RNA transcript definitions (dated Dec. 19th, 2012) from the fRNAdb database (Kin et al., 2007, Nucleic acids research 35(Database issue):D145-148) at ncrna.org. Reads were mapped using the LifeScope Whole Transcriptome Pipeline with default parameters, which effectively maps RNA fragments down to 22 nucleotides in length. The Cufflinks algorithm (Trapnell et al., 2013, Nature biotechnology 31(1):46-53) was used for transcript assembly, abundance estimation and differential expression analysis, using the reference transcript annotation as a guide. Results generated from Cufflinks were investigated using the CummeRbund package (www.R-project.org). […]

Where [1] appears, read: exosomal mRNA level (NGS) in exosomes from LPS-stimulated RAW 264.7 cells.
Where [2] appears, read: exosomal transcript level, exosomes from LPS-stimulated RAW 264.7 cells, NGS.

As for `CCCCCOc1ccc(-c2ccc(-c3ccc(C(=O)N[C@H]4C[C@@H](O)[C@@H](OCC[N+](C)(C)C)NC(=O)[C@@H]5[C@@H](O)[C@@H](C)CN5C(=O)[C@H]([C@@H](C)O)NC(=O)[C@H]([C@H](O)[C@@H](O)c5ccc(O)cc5)NC(=O)[C@@H]5C[C@@H](O)CN5C(=O)[C@H]([C@@H](C)O)NC4=O)cc3)cc2)cc1` [Cd101] ({pTerphenylCO(4''-OnC5H11)}-[Orn(4R-OH,5R-OCH2CH2NMe3+)]T[Hyp][hTyr(3S-OH,4S-OH)]T[Pro(3S-OH,4S-Me)]; lactam 1-C), the PS/cpntrol ratio entry is given as “.25”. Under setting [1], the “FKPM LPS” value is “.218311”. The corresponding values for Ccl4 are “.25” and 0.7929. For Gdf11, the “FKPM LPS” value under setting [2] is recorded as “.905503 FKPM”. On the same count and under the same terms, to Pgcp belongs “.17431 FKPM”.
